Measurements published in PMC11384143.
Results are given in words; binding and its absence hold for the method and conditions named. In cells and extracts the contact can be indirect. Binding can be weak; no strength is given.

The chains behind the UniProt entries cited, without tags or fusion partners. Where a name states a change or a piece, a line headed by the entry shows the natural chain unless it says otherwise. Residues count along the entry.
UniProt P78324, residues 31-504: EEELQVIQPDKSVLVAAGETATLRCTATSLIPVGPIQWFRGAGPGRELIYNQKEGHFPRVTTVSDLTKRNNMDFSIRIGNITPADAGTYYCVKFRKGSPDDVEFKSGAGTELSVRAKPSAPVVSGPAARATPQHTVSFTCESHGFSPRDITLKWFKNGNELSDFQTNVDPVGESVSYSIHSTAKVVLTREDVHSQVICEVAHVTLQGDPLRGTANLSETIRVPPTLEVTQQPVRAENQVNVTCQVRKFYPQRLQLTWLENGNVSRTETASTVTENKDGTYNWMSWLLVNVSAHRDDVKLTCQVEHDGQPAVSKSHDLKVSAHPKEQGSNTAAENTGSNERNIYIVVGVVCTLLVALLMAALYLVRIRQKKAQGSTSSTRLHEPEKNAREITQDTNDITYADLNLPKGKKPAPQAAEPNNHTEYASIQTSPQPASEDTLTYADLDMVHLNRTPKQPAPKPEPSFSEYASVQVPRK
UniProt P29350: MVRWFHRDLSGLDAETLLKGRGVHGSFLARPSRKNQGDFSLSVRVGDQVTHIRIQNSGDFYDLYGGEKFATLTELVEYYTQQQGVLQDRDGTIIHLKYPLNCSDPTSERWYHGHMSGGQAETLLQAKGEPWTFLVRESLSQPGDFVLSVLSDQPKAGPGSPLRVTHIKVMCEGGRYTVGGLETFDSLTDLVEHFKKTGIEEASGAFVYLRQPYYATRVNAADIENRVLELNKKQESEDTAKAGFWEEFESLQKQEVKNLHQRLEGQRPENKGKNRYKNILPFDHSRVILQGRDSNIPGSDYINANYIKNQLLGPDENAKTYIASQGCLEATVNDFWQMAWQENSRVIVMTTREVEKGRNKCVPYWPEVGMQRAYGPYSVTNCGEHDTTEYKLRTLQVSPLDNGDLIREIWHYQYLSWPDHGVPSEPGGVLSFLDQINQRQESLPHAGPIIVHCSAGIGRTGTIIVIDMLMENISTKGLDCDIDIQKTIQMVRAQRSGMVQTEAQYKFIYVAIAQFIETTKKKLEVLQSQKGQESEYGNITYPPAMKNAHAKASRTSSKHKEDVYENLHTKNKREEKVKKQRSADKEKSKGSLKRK

Biological target: full-length huSIRPα V1 with a small β-galactosidase fragment (ED) fused to its C-terminal (human) (UniProt P78324)
Assay: split reporter; β-galactosidase fragment complementation (SIRPα/SHP-1 recruitment assay): K562/SHP-1+hSIRPα+CD47− cells with Jurkat cells at 1:4, overnight at 37°C; chemiluminescence

**Q.** “SH2-domain of SHP-1 engineered with the complementing β-galactosidase fragment (from UniProt P29350) (domain or fragment)” was tested. Which binding did it give?
**A.** binds
